The results in this text go back to publication PMC9177963.

The chains behind the UniProt entries cited, without tags or fusion partners.
UniProt Q02248: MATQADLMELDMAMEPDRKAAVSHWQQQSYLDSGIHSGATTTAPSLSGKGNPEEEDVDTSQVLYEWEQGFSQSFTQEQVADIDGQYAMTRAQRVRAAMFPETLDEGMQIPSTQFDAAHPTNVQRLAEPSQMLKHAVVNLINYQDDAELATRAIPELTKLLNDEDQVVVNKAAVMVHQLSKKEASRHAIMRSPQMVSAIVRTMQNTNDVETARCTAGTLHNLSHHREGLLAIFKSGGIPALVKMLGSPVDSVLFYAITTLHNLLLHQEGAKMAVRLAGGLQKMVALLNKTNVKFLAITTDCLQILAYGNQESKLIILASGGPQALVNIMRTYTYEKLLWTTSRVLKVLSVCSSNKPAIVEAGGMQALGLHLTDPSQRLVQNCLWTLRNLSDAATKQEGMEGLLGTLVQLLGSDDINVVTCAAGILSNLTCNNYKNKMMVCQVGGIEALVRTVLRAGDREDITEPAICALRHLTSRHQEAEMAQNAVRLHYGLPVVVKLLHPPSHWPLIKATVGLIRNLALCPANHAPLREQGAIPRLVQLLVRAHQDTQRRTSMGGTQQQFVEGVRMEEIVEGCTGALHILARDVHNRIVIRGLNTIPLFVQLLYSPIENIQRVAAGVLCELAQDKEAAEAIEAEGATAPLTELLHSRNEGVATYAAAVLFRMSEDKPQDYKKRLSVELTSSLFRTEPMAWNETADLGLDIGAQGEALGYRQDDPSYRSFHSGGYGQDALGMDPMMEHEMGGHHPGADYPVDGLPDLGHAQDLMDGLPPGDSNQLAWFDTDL

These are yes or no findings as the source states them, for the method shown. In cells and extracts the contact can be indirect. A yes stands for co-enrichment or nearness to the bait. Other partners may have been found.

The target of this experiment is T1, USP26 (ubiquitin-specific protease 26) (mouse (endogenous in mouse MSCs and BMMs)) (UniProt Q99MX1).
T1 sequence: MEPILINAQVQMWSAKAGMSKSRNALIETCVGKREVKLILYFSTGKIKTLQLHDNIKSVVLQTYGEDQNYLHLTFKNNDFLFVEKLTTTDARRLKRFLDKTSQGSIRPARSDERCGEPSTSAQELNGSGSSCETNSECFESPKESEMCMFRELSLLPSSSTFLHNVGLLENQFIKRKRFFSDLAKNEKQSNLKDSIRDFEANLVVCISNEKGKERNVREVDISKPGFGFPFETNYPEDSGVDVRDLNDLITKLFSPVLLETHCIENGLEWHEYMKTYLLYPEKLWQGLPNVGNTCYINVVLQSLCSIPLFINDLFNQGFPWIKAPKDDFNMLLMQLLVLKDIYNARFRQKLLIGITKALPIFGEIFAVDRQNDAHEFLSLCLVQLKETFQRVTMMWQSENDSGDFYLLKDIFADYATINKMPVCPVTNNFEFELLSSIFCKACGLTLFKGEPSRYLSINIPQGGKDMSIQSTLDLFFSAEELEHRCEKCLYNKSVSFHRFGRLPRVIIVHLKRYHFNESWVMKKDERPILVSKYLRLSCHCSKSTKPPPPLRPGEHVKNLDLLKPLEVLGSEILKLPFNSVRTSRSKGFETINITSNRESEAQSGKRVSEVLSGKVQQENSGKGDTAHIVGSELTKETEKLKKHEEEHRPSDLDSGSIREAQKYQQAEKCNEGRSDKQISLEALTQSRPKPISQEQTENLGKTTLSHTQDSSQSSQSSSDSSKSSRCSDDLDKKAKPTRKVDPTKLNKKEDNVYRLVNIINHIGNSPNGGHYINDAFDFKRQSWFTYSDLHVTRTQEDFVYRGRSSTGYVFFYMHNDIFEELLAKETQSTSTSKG
The experiment is described as follows: affinity purification with mass spectrometry; supernatant of mouse MSC lysates incubated with anti-USP26 antibody overnight at 4 °C, protein A + G beads; eluate on SDS-PAGE, silver stained, gel bands analysed by LC-MS/MS.

For β-catenin (from UniProt Q02248 1-781), the binding result is recorded as “binds”.
